Experimental data as given in patent US20230382953A1.

Amino acid sequences for entries named in this document (tags omitted).
UniProt Q15596: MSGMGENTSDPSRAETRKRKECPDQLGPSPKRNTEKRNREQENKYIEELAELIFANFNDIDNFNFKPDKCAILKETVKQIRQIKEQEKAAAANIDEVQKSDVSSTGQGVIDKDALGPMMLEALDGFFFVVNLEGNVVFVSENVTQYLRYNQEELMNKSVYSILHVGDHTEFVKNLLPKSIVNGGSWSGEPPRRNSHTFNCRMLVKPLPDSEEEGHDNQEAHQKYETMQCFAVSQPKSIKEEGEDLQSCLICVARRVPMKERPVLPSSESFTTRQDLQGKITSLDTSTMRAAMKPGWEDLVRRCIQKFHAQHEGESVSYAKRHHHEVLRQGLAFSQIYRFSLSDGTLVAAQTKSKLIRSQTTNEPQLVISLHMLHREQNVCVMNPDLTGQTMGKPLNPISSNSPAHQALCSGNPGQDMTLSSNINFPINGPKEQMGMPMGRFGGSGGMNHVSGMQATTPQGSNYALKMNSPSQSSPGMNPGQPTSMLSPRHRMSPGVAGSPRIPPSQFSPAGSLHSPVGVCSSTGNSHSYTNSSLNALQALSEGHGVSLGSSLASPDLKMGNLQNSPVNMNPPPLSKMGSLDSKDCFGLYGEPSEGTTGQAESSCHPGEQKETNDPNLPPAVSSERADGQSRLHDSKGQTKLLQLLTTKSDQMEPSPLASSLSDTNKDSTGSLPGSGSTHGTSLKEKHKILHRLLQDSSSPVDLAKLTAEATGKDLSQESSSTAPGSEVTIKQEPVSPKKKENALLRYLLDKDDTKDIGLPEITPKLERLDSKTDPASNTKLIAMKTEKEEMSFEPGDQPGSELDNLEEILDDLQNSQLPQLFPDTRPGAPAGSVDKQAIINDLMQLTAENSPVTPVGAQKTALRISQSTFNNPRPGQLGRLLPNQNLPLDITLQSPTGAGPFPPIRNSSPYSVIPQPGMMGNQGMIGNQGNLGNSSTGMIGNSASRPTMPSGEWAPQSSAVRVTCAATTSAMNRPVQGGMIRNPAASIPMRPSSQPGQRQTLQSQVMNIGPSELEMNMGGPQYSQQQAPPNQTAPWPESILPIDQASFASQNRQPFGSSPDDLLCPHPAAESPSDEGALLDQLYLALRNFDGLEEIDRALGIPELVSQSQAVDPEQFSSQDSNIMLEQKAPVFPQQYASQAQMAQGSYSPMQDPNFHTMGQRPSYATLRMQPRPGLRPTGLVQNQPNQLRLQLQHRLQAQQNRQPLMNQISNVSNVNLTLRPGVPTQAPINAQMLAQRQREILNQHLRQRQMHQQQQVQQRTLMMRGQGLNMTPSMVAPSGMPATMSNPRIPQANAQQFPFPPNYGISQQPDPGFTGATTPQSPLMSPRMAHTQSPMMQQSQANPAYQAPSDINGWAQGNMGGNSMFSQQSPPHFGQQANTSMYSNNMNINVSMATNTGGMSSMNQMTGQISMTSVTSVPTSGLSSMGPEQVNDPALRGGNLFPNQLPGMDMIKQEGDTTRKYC
UniProt F5HCV3: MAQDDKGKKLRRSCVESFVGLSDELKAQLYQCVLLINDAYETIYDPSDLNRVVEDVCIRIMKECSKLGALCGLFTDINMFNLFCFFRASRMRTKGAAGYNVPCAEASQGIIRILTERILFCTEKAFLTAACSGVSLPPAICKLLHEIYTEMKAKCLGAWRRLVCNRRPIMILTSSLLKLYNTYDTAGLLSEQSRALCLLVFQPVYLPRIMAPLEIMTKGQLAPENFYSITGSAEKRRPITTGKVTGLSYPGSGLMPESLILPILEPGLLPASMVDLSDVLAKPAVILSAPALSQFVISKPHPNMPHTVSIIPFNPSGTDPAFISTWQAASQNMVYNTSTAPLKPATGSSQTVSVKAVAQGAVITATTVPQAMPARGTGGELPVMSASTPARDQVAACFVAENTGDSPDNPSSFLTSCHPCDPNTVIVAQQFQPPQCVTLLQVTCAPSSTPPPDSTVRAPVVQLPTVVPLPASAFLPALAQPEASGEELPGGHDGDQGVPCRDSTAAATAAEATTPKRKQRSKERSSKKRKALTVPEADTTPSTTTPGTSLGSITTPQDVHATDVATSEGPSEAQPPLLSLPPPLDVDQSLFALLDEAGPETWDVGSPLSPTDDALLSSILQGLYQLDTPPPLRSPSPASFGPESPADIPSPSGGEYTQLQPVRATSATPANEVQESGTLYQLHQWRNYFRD

Biological target: NCoA2 (UniProt Q15596)
Assay: biochemical and genetic approaches (GST pull-down, ChIP with mass spectrometry; FIG. 1)

KSHV ORF50 (from UniProt F5HCV3 1-691)
binding: binds

Results are given in words; binding and its absence hold for the method and conditions named. Binding seen in cells or lysates may run through a third protein. Here binding means that the protein was enriched with, or labelled near, the bait; the list need not be complete.
